The full ranking holds about 33,000 sequences; the median of “E-score (-0.5 to 0.5)” is about -0.0034, and the highest 2% start at about 0.25. Some of the results follow.
target: T1, Yap3 (UniProt P38749); experiment: PBM E-score (8-mer binding enrichment) (E-score (-0.5 to 0.5)); higher = stronger / more preferred TF binding; settings: protein concentration: 100 nM; construct: GST-full length
T1 sequence: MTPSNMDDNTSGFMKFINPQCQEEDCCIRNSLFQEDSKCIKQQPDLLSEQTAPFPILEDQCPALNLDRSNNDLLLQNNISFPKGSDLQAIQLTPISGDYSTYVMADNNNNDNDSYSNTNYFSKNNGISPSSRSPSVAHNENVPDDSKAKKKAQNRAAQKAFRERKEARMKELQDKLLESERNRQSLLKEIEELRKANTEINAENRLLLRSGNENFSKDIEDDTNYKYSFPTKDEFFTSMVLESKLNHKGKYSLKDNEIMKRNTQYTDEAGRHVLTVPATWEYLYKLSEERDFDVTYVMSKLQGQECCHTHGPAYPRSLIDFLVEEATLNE
How it was run: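 E-scores (a modified Wilcoxon-Mann-Whitney statistic) were assigned by the Universal PBM Analysis Suite to every ungapped eight-base word pooled with its reverse complement. The input came from universal all-10-mer Agilent arrays made double-stranded by primer extension and probed with GST-tagged yeast transcription factors at about 100-200 nM. Fluorescent anti-GST detected bound protein, and masliner normalised the scans.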

Sequence	PBM E-score
CACTTCGC	-0.00449
GCCTGTAC	-0.0409
CCATCAAC	0.18
ATGGGGCC	-0.352
AACAGAGA	0.0937
CTATGTTC	0.0857
AATAGTAT	0.229
CAATGAAG	-0.0559
AACGGTTA	-0.00989
AACTTATT	0.21
ACACTAGC	-0.0156
GCCAGCGA	-0.174
AATAAGTC	0.0193
AGACCACT	0.00102
AATTCTGC	0.129
GAGTGGGC	-0.129
AAGCGGCG	-0.131
AGATTTGG	-0.12
CCGACTCG	-0.0307
TACATCAA	0.082
CACAACCA	0.164
TCAGAGAA	-0.045

Pulled one by one from the entries so far (4):
Sequence	PBM E-score
AATAGTAT	0.229
AACTTATT	0.21
CACTTCGC	-0.00449
AACAGAGA	0.0937

Next results follow:

Sequence	PBM E-score
AGACAAAT	0.212
CTTCGCTA	0.0221
CGATTACC	-0.0743
AGGCTAAG	-0.113
ACCGTATC	0.0318
CATATAAG	0.113
CGTGAACC	-0.157
AACACAGG	-0.0592
AGAGGATG	0.0351
ACCTCACG	0.00135
CTAATGCC	-0.0329
GGTATCGA	0.101
GCCTCTTA	0.0137
CTCTCAAC	-0.119
GTAACAAA	0.174
CACTGACC	-0.061
AGTTCGAA	0.164
CTTCGGTA	-0.0668
GAGCTACC	-0.145
CCAATAAG	-0.00656
GCTGTGCC	-0.134
ACGCCTTA	-0.155

Sequence	PBM E-score
CCACGGAA	0.0091
GAAGTCGC	0.0657
GTATCCGA	-0.0824
TGCCCGAA	0.0181
GAGAAGCC	-0.0957
CCACTAGG	-0.201
AATACCGC	0.0473
CTTCATAA	0.0897
ATTTTCCA	0.13
CGACAACA	0.152
GGTCGCAC	-0.0706
ACTTCCAT	0.00262
GGGTCCTA	-0.127
CATTGACC	0.216
TGATATAA	0.108
ACTACAGA	0.144
ACTGCTTG	-0.253
ATCCCCTG	-0.237
AAAACGAG	0.0188
CGTCAGTA	-0.13
AGGTTTAA	0.0408
GAGGGAGC	-0.251

Sequence	PBM E-score
CCGGCGAG	-0.0273
AGGCGTGC	0.016
TAGGGAGA	-0.0269
ATTCAGTG	0.129
AGACTATC	0.0563
ACAGTAGG	-0.0832
AGCGCACG	-0.0432
ATGCTGAA	0.0042
AAGCCATC	0.109
ATCGCGCA	0.00588
GAACACAA	0.089
GCCTCTCC	-0.275
AATATTAG	0.239
GTCATCAC	-0.00817
TCCTTAGA	-0.141
AGACCTGA	0.0621
CACGTCCA	-0.153
ATTAGTTA	0.291
CAGCCGAC	-0.182
TATTAGGA	0.129
CCTCACTA	-0.0473
AAACAGAA	0.19

Sequence	PBM E-score
ATCGGCCC	-0.0684
AATTCCAA	0.15
CGGCGTAA	0.172
CTCATACA	0.0806
CTTCCAGA	0.0386
ACACGCAG	-0.18
GGGATAAA	0.172
GCAACTGA	0.006
GCTCAGAA	-0.016
GTCGGAAC	-0.0566
GGTCAAAC	-0.0628
CCCTCGCA	-0.0713
AGGATCCC	-0.156
GCTCCTAA	-0.265
ACGCCTGC	-0.26
GCATCCGC	-0.101
CCTTTTGC	-0.0359
ACTTTAAG	0.138
ACCTGAGT	-0.052
AGGCCTTC	0.00868
CGACCTTC	0.0383

— the supplement of paper PMC3334620
